# PubChem BioAssay AID1508588 – Peter MacCallum Cancer Centre, 2020
# Test: 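Which gene losses make BRAF-mutant melanoma cells more responsive to vemurafenib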 (primary screen)
# System: human WM266.4 melanoma cells (BRAF V600 mutant)
# Reagent: siRNA pool against human genes, 40 nM
# Duration: 96 h from transfection to read-out
# Conditions: vemurafenib 300 nM (about IC25), added 48 h after transfection, for 48 h; comparison arm got DMSO vehicle only
# Measured: 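Ratios to non-targeting siRNA for cell gain, counted as DAPI nuclei after minus before drug and averaged over two replicates, and for absorbance-read medium lactate per cell; both binned into fold-change classes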
# Scale: cell gain with vemurafenib: higher = more cell gain than with non-targeting siRNA; lactate per cell with vemurafenib: higher = more lactate made per cell
# Call rule: 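a knock-down counts as enhancing when its fold-change classes with vehicle and with vemurafenib, taken together, show a stronger drug effect on cell gain or lactate per cell; exact class pairs not stated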
# Meaning of the calls: active = enhances vemurafenib effect; inactive = no enhancement seen
# The deposit covers about 18,000 reagents; below is a random part of them. 790 of them (4.4%) were called active. 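Calls rest on a combination of fold-change classes in drug and vehicle arms, not all shown here.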 Entries without a mark were called inactive. Reagent sequences are not shown.
Target gene,cell gain with vemurafenib,lactate per cell with vemurafenib
USP30,0.78,0.7
STX18,0.57,1.02
DNAH11,0.92,0.77
ADAMTS15,1.04,0.64
OR6M1,0.76,0.6
GNG3,0.89,0.56
GLYAT,0.58,1.35
CD163,0.53,1.29
MBNL3,0.2,1.45
OR6C6,1.09,0.73
TSPY1,0.6,0.84
APRT,0.77,0.9
IL13RA2,0.49,1.72
CCDC174,0.76,0.78
CMTM1,0.39,0.9
DZIP1,0.94,0.97
TAGLN3,0.53,1.58
E2F2,0.83,0.88
CD70,1.18,0.72
SLC49A3,0.63,0.97
EIF4A1,0.27,0.62
OOEP,0.89,0.73
HLA-C,0.82,0.36
SLIRP-OT1,0.47,1.19
ZNF558,1.06,0.68
VEGFD,0.47,1.66
ZNF318,0.34,0.92
PLGLB1,0.78,0.86
ABTB2,0.33,1.58
ERN2,0.83,0.64
SCN7A,0.49,0.98
PCNX1,0.28,1.02
AKTIP,0.84,0.78
GOLGA6B,0.78,0.92
CIRSR,0.15 (active),0.36
PKD1L1,0.55,1.82
MATCAP1,0.61,0.76
PSMA7,-0.11,1.86
NCOA3,0.46,0.45
IRGQ,0.58,2.31
CNOT3,0.45,1.68
KDM4A,0.16,1.54
LSAMP,0.7,0.42
ASCC2,0.46,1.01
TMEM158,1.11,0.88
KISS1,0.48,1.27
DEFB107A,0.7,0.62
KDM5C,1.13,1.08
YBX1,0.38 (active),0.09
HLA-DMA,1.32,0.75
TUBB7P,0.09,1.84
GSTM5,0.52,0.29
CUTC,0.56,0.94
C10orf95,0.17,0.95
LMBRD1,0.19,1.36
MIPOL1,0.57,0.72
RUSC1,0.68,0.82
ZCCHC2,0.21,1.14
KRT14,0.54,0.86
CFL1,0.56,0.5
MYL12B,1.02,0.58
CKAP2L,0.98,0.7
ZNRD2,0.39,1.76
IL20RB,0.81,1.41
PSTPIP1,0.73,1.19
VNN2,0.74,0.83
NRG1,0.38,0.82
OR2L13,0.74,0.8
LAT2,0.04,1.19
ZNF641,0.44,1.38
MRNIP,0.45,1.32
ADIPOQ,0.8,0.72
KXD1,0.19,0.02
MASTL,0.09,1.5
PIWIL4,0.46,0.55
CLDN11,0.95,1.05
OXCT2,0.21,1.13
ALDH6A1,1.01,0.81
RIPOR1,0.14,2.06
RALGAPA2,1.32,0.49
DENND6B,0.25,0.97
DNAJB1,0.67,1.17
HCCS,0.33,1.86
SDHAF2,0.3,1.9
